The nature of the experiment: qHTS Assay for Lipid Storage Modulators in Drosophila S3 Cells.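 As to cell number change: cells counted by Cell Tracker Red CMTPX staining in the red channel.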 The following applies: BODIPY lipid droplet fluorescence, 18-24 h; for cell number change: measured here: cell count max response, cells fed with added oleic acid. A digest of the protocol: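 Drosophila S3 cells got compounds at several concentrations plus oleic acid (400 uM solution). Laser-scanning cytometry with 488 nm excitation read lipid droplets at 500-530 nm and cells at 575-640 nm. Percent activity was relative to 20 uM Triacsin C.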
For orientation: qHTS replaces the single test concentration by a dilution series.

Where [1] appears, read: measured here: cell number channel AC50, cells fed with added oleic acid.
Setting [2] is: measured here: lipid fluorescence (Fed channel) AC50, cells fed with added oleic acid.

Each structure is given as a SMILES string. The list shows a part of the results. The main result of the screen is listed elsewhere. These columns were measured beside it and carry no call. The list favours compounds with an active or inconclusive main result. The note in brackets gives the kind of curve behind each potency; many fits are weak.

Turning to `O=C(CSc1nnc(CNC(=O)c2cccs2)o1)Nc1ccccc1C(F)(F)F`, the cell number change stood at 11.3%.

For the compound `Cc1cc(C(=O)N2CCCC(CO)(Cc3ccc(F)cc3)C2)c(C)o1` (stereo unspecified), the cell number change was 18.2%. Further, the AC50 under setting [1] is 0.0731 µM [rising, full curve, poor fit]. For the same compound, the AC50 under setting [2] was 29.1 µM [falling, single point].

For `O=C1/C(=C/c2ccncc2)CCC/C1=C\c1ccncc1`, the cell number change was -64.5%. In addition, the AC50 under setting [1] was 18.4 µM [falling, single point]. The AC50 under setting [2] is 18.4 µM [falling, single point].

On to `Nn1c(SCC(=O)Nc2ccc(S(N)(=O)=O)cc2)nnc1-c1ccco1`, for which the cell number change was -2.37%.

For `CCc1ccc(/C=N/Nc2ncnc3nc[nH]c23)cc1`, the cell number change was -15.2%. Besides, under setting [2], the AC50 is 0.58 µM [falling, full curve, poor fit].

With `COc1cc(CN2CC(=O)N(c3ccc(C)c(C)c3)C2=S)cc(OC)c1OC`, the cell number change is 4.55%. In addition, the AC50 under setting [2] was 3.66 µM [rising, single point].

On to `COCCCNCCCCOc1ccc(Br)cc1Cl`, for which the cell number change was -9.36%.

As for `Cc1ccc(C(=O)NC(=S)Nc2ccccc2C)cc1`, the cell number change was found to be 5.5%.

For the compound `Cc1cc(C)c2cc(C(=O)Nc3ccc(C)c(F)c3)[nH]c2c1`, the cell number change is -31.2%. For the same compound, under setting [1], the AC50 was 20.6 µM [falling, single point]. Under setting [2], the AC50 was 20.6 µM [falling, single point].

Take `COc1ccc(CN(C)C(=O)c2ccc(Cl)c(S(=O)(=O)NCc3cccnc3)c2)cc1F`: the cell number change was -24.7%. Besides, under setting [2], the AC50 was 6.51 µM [falling, single point].

For `O=C(c1cccs1)N1CCN(S(=O)(=O)c2cccs2)CC1`, the cell number change is -3.25%. In addition, the AC50 under setting [1] was 0.206 µM [falling, full curve]. The AC50 under setting [2] was 0.82 µM [falling, full curve].

Take `CCN1CCN(C(=S)Nc2ccc3nc(N4CCN(C)CC4)cc(C)c3c2)CC1`: the AC50 was 4.11 µM [rising, single point] under setting [1] and 6.51 µM [rising, single point] under setting [2].

With `N#CC(c1ccncc1)(c1ncc(C(F)(F)F)cc1Cl)N1CCOCC1` (stereo unspecified), the cell number change is -41.5%.

As for `COc1cc(C(=O)NCc2nnc(SCC(=O)N3CCCc4ccccc43)o2)cc(OC)c1OC`, the cell number change is -7.87%. Under setting [1], the AC50 is 3.66 µM [falling, single point].

In the case of `CN(C(=O)CSc1nncn1-c1ccccc1)c1ccccc1`, the cell number change was -0.833%.

For the compound `COc1cc2c(cc1OC)CN(CCOc1ccc(Br)cc1)CC2`, the cell number change came to 43.2%. Also, the half-maximal activity concentration (AC50) under setting [1] was 29.1 µM [rising, single point].

For `CCOC(=O)CSc1nc(C2CC2)nc2ccccc12`, the AC50 under setting [2] was 29.1 µM [falling, single point].

Regarding `COc1ccc(CCNC(=O)CCCc2ccccc2)cc1OC`, the cell number change is -21.9%. In addition, the AC50 under setting [2] was 0.00517 µM [falling, full curve].

With `C=C(C)C1CC=C(C)/C(=N/NC(=O)c2cccc([N+](=O)[O-])c2)C1` (stereo unspecified), the cell number change came out at 32.6%. For the same compound, the concentration at half-maximal activity (AC50) under setting [1] is 11.6 µM [rising, partial curve, poor fit].

Regarding `O=C(CN(C(=O)CCC(=O)Nc1nccs1)c1cccc(F)c1)NCc1ccc2c(c1)OCO2`, the cell number change turned out to be 77%. In addition, the AC50 under setting [1] is 29.1 µM [rising, single point]. For the same compound, the AC50 under setting [2] was 29.1 µM [rising, single point].

`CCCOc1ccc(/C=N/Nc2ccccc2[N+](=O)[O-])c(O)c1`: the cell number change was -23.7%. In addition, the AC50 under setting [2] is 0.13 µM [rising, partial curve].

Turning to `O=C(NC1C2CC3CC(C2)CC1C3)c1ccc(Br)o1` (stereo unspecified), the cell number change is -40.3%. In addition, the AC50 under setting [1] is 18.4 µM [falling, partial curve, poor fit]. Under setting [2], the AC50 was 29.1 µM [falling, single point].

In the case of `CS(=O)(=O)N(CC(=O)Nc1ccc(F)cc1)C1CCCCC1`, the cell number change amounted to 21.1%. Moreover, the AC50 under setting [2] is 5.62 µM [rising, single point].

Regarding `CC(=O)Nc1ccc2ccccc2c1`, under setting [2], the concentration at half-maximal activity (AC50) was 29.1 µM [falling, single point].

Consider `CN(C)C1=NC[C@H](Cc2ccccc2)N1CCc1ccc(F)cc1`, for which the cell number change worked out at 17%.

For the compound `Cc1onc(-c2ccccc2)c1C(=O)N1CCN(S(=O)(=O)c2ccc(Cl)cc2)CC1`, the cell number change turned out to be 15.4%. Further, the AC50 under setting [2] was 6.51 µM [rising, single point].

In the case of `O=C(NCc1ccc(Cl)cc1)c1ccc(COCC(F)(F)F)o1`, the AC50 was 0.13 µM [falling, full curve, poor fit] under setting [1] and 0.58 µM [falling, single point] under setting [2].

In the case of `C=CCn1c(C)cc(-c2csc(NC(=O)C3=COCCO3)n2)c1C`, the cell number change stood at 0.673%.

For `Cc1cc(/C=N/NC(=O)c2ccc(O)cc2)c(C)n1C1CC1`, the cell number change is -39.8%. Also, the AC50 under setting [1] was 1.16 µM [falling, full curve].

For `CCN(CC)C(=O)CSc1nc2c(sc(=S)n2-c2ccccc2)c(=O)n1Cc1ccco1`, the cell number change amounted to 91.9%. Also, the AC50 under setting [1] is 1.16 µM [rising, full curve]. For the same compound, the AC50 under setting [2] was 1.64 µM [rising, partial curve].

Turning to `CCOCC(=O)Nc1c(C(=O)Nc2ccc(OC)cc2OC)oc2ccccc12`, the AC50 reads like this: under setting [1], 0.92 µM [rising, partial curve]; under setting [2], 0.92 µM [rising, partial curve].

Take `Cc1ccc(S(=O)(=O)N2CCN(C(=O)C3CCN(C(=O)c4ccccc4C)CC3)CC2)cc1C`: the cell number change came to 23.2%. Further, the AC50 under setting [2] is 29.1 µM [rising, single point].

Consider `Cc1cccc(Oc2coc3cc(OC(=O)c4cc5ccccc5oc4=O)ccc3c2=O)c1`, for which the cell number change was -16.6%. Moreover, under setting [2], the AC50 is 0.092 µM [rising, full curve, poor fit].

As for `CN(C)/C=C(\C#N)C(N)=C(C#N)C#N`, the cell number change was 46.4%. Also, under setting [1], the AC50 is 16.4 µM [rising, single point].

As to `CCc1cc(C(=O)c2ccc(OC)cc2)c(NC(=O)CN2CCCCC2)s1`, the cell number change was -14.5%. Besides, the AC50 under setting [2] is 0.731 µM [falling, single point].

For `Cc1cccc(C(=O)NC(C)C(c2cccs2)N2CCOCC2)c1` (stereo unspecified), the cell number change was 16.7%. Further, the AC50 under setting [2] is 6.51 µM [rising, single point].

In the case of `CCC1CCCCN1C(=O)CSc1nnc(-c2cccs2)o1` (stereo unspecified), the cell number change was -1.56%.

`CC(C)C[C@H](NC(=O)OC(C)(C)C)C(=O)N1CCC(C(=O)N[C@@H](Cc2c[nH]c3ccccc23)C(=O)O)CC1`: the cell number change amounted to 10.4%. Moreover, the AC50 under setting [2] is 29.1 µM [rising, single point].

As to `CCCC(=O)OCC(=O)Nc1ccc2c(c1)OCO2`, the AC50 was 0.13 µM [rising, single point] under setting [1] and 0.103 µM [rising, partial curve, poor fit] under setting [2].

Regarding `CC(=O)Oc1ccc2cc(-c3nc4ccccc4n3C)c(=O)oc2c1`, the cell number change was 2.53%.

Turning to `COc1ccc2nc(NC(=O)Nc3ccccc3)sc2c1`, the cell number change is -44.5%. In addition, under setting [1], the AC50 was 23.1 µM [falling, partial curve, poor fit]. The AC50 under setting [2] was 32.6 µM [falling, partial curve].

In the case of `CCn1cc(Cl)c(C(=O)N2N=C(c3ccc4ccccc4c3)CC2c2ccccc2O)n1` (stereo unspecified), the cell number change was -51.8%. Also, the concentration at half-maximal activity (AC50) under setting [1] was 16.4 µM [falling, single point]. Besides, the AC50 under setting [2] is 18.4 µM [falling, single point].

On to `O=C(Nc1ccncc1)c1ccc(Br)cc1`, for which the cell number change was 17.9%. Further, the AC50 under setting [2] is 29.1 µM [rising, single point].

For the compound `COCCn1c(-c2ccc3ccccc3c2)nc2c1c(=O)[nH]c(=O)n2CC(C)C`, the cell number change is 7.66%.

As for `Cc1nn(CC(=O)OCC(=O)NC(C)c2ccccc2)c(C)c1[N+](=O)[O-]` (stereo unspecified), the cell number change turned out to be 130%. In addition, under setting [1], the AC50 is 23.1 µM [rising, partial curve, poor fit]. In addition, the AC50 under setting [2] is 29.1 µM [rising, partial curve].

`COc1cc(/C=C/C(=O)OC(C)C(=O)NC2CCCCC2C)cc(Cl)c1OC` (stereo unspecified): the cell number change is -50%. Under setting [1], the AC50 is 0.731 µM [falling, full curve].

Turning to `Cc1n[nH]c(C)c1C(=O)CC1(O)C(=O)N(CCc2ccccc2)c2ccc(Cl)cc21` (stereo unspecified), the AC50 under setting [2] was 2.31 µM [rising, partial curve].

Consider `COc1ccccc1CNC(=O)c1cc(-c2ccccc2)n(Cc2cc(C)no2)n1`, for which the cell number change is -5.46%. The concentration at half-maximal activity (AC50) under setting [2] is 6.51 µM [falling, single point].

With `CSc1ccc(/C=N/N2CCN(Cc3ccc(Cl)cc3)CC2)cc1`, the cell number change was 27%. Further, the AC50 under setting [2] was 29.1 µM [rising, partial curve].

As to `CCOC(=O)C1CCN(C(=O)C2(NC(=O)Nc3cccc(F)c3)CCCCC2)CC1`, the cell number change was -46.8%. The AC50 under setting [1] is 1.3 µM [falling, partial curve]. Under setting [2], the AC50 is 8.2 µM [falling, partial curve].

For the compound `CCOC(=O)C(=N/O)/C(C)=N/NC(C)=O`, the cell number change was -31.7%. Moreover, under setting [1], the AC50 was 23.1 µM [falling, single point]. Besides, the AC50 under setting [2] was 23.1 µM [falling, single point].

On to `Cc1cccc(-n2cc(CN(C)Cc3nccn3C)c(-c3cccc(F)c3)n2)c1`, for which the cell number change was -34.3%. For the same compound, the AC50 under setting [1] is 29.1 µM [falling, single point]. In addition, under setting [2], the AC50 is 29.1 µM [falling, single point].

For `CCOc1ccc2nc(NC(=O)C3CCCN(S(=O)(=O)c4c(C)noc4C)C3)sc2c1` (stereo unspecified), the cell number change is -40.2%. Moreover, under setting [1], the AC50 is 23.1 µM [falling, single point]. In addition, the AC50 under setting [2] is 23.1 µM [falling, single point].

Regarding `CC(=O)c1ccc(NC(=O)C(Cc2ccccc2)n2cccc2)cc1` (stereo unspecified), the cell number change is -12.9%.

With `CCN(CC(=O)Nc1c(F)cccc1F)C(=O)c1ccc(S(=O)(=O)N2CCC(C)CC2)cc1`, the cell number change was -6.33%.

As for `COC(=O)[C@@]1(Cc2ccc(OC)cc2)[C@H]2c3cc(C(=O)N4CCCC4)n(Cc4ccc(OC)c(OC)c4)c3C[C@H]2CN1C(=O)c1ccccc1`, the cell number change was -30.1%. Moreover, the AC50 under setting [1] is 23.1 µM [falling, single point]. Besides, the AC50 under setting [2] was 32.6 µM [falling, partial curve, poor fit].

As for `CCCCOc1ccc(NC(=O)CSc2nnnn2C)cc1`, the AC50 is, setting by setting: under setting [1], 0.116 µM [falling, full curve, poor fit]; under setting [2], 2.91 µM [rising, full curve].

Turning to `CC1(C)C(C=C(Cl)Cl)C1C(=O)N(Cc1cccc(Cl)c1)C1CCS(=O)(=O)C1` (stereo unspecified), the cell number change is -16.7%. The AC50 under setting [1] was 3.66 µM [rising, single point]. Further, the AC50 under setting [2] is 7.31 µM [rising, partial curve, poor fit].

The term AC50 denotes the midpoint of the concentration-response curve, whichever way the signal moves.
